Experimental findings from PMC9842505 are described below.

Protein sequences, listed by entry. Tags and fused reporters are not part of them.
UniProt P25490: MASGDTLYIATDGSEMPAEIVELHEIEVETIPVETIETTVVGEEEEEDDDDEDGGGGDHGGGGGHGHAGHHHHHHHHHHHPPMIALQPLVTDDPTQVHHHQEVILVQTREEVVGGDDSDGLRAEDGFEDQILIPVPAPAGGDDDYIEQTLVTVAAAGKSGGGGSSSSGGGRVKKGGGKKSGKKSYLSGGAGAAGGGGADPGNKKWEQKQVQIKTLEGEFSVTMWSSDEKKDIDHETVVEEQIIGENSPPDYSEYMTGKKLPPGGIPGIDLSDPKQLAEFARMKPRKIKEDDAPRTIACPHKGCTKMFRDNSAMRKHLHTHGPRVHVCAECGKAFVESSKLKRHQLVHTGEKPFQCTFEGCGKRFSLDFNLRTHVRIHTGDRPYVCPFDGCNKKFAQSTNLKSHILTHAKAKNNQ

The target of this assay is YY1 (human (in lysate of human PCa cell lines)) (UniProt P25490). Description: co-IP; cell lysates in IP lysis buffer, incubated with indicated antibodies and control IgG overnight at 4 °C, beads, western blot. On the technique in general: Immunoblotting shows a protein as a band on a membrane.

These are yes or no findings as the source states them, for the method shown. In cells and extracts the contact can be indirect. Some results given as binding are weak or reduced against the parent protein; the word gives no strength.

B1: NAP1L2 (protein, UniProt Q9ULW6 1-460)
chain: MAESENRKELSESSQEEAGNQIMVEGLGEHLERGEDAAAGLGDDGKCGEEAAAGLGEEGENGEDTAAGSGEDGKKGGDTDEDSEADRPKGLIGYVLDTDFVESLPVKVKYRVLALKKLQTRAANLESKFLREFHDIERKFAEMYQPLLEKRRQIINAIYEPTEEECEYKSDSEDCDDEEMCHEEMYGNEEGMVHEYVDEDDGYEDYYYDYAVEEEEEEEEEDDIEATGEENKEEEDPKGIPDFWLTVLKNVDTLTPLIKKYDEPILKLLTDIKVKLSDPGEPLSFTLEFHFKPNEYFKNELLTKTYVLKSKLAYYDPHPYRGTAIEYSTGCEIDWNEGKNVTLKTIKKKQKHRIWGTIRTVTEDFPKDSFFNFFSPHGITSNGRDGNDDFLLGHNLRTYIIPRSVLFFSGDALESQQEGVVREVNDAIYDKIIYDNWMAAIEEVKACCKNLEALVEDIDR
For B1, the binding result is given as “binds”.
